Drawing on PMC8446793, this text covers binding for two molecules.

The target in this assay is ELKS-1 tagged C-terminally with CeTurboID::mNeongreen::3XFLAG (C. elegans). Nature of the assay: proximity labelling; TurboID knocked into the endogenous elks-1 locus; living L4 or young adult worms in M9 with 1 mM biotin for 2 h at 22 °C; denaturing extraction (1% SDS, 2 M urea), streptavidin Dynabeads, SDS-PAGE and LC-MS/MS; enrichment against wild-type worms and worms with free TurboID-mNG in the nervous system (rab-3p) processed in parallel.

No constants are given. Whether binding was seen depends on the method and setting. In cells and extracts the contact can be indirect. A yes stands for co-enrichment or nearness to the bait. Other partners may have been found.

B1: SYD-1/SYDE1 (protein, UniProt Q86NH1 1-987)
chain: MLISTSLKFLTMLTSNGFGGTNPPKGMPYPPTYLYTEEPQNECCCCWLCRLLCCCSPVDQTASRSRMNASQPPPGGGGRLPDEVFRKITAVDQGQSTLTQSGIQGLSARTLSSEPRGDLVFQLVEIIKKPGQSLGLYLREGNGKDRSDGVFVSRFGDNSELAKYGEVMRPGDEILTINNVEVSMMSIDDVVLILSIPRRLLLRIRYSKSMRHEIISSRSRESERPVVVFHKYDDRRDSETNAPILSQPTSTANTWLGKKSRQQMEEMRNATTSSTLRTHASTSSPRNHFAPRLVNGHSHSIGVPSASTTSHDHQYQRFASEPSDSVSRTARVPPPRLASATVRRTESFNSAPGVSTSAPMYTLPRSSTAVPPPDILGSIPYSARDPLMRSSADLPYDPMTGRLSSSVPTDPLLSRSLCSPILPRTLRQANDSNKSNSLPRRRIMTGGRNVKWRNDVVSTSDLCGEESDGAISAPEYSSPPFSRLTQQQQFRLSNGSPGRTVNDIFSAAEYRNWAGPYDPRGMYGPFPPGQRATRWSHTYGEQRAPRTSSLPGRTVLAQSLVGSPVLPRHPPPIVQDRPSAVFDRYHVSPLMNRRAPLRAAGPGINVDRLSVSSLTGILYVHIVEGRGLKIPEKQKGLTEEMYCVLEVDEQHRARTGVSTIEQKFKWRETFHIDVVNATVSNFFVYSWHPQFRHKLCHKGSLKLLEAFVVDQLNDDRVFALNLEPRGQLIVRIGFHDLQAVFRRTVNPRLNGVFGISLSRLVQRERRDTPIVLTRLIQEIEKRGVDYSGLYVLCGSVEKKKMLRAELESNPLGTELAAESIPDTNVIACLIKDFLRELPEPLISPQIHGMLLEAASVALPNDVQTNRHLVLKIIDCLQLSAKNCLLLVLDHLSTVLCSSPHNGLTPTRLSLIFAPLLFFCLDTFSPYTISPTSKMAAVRTLDINQASSSLQMILSIWPSRVNSESGSDSPATTCQKGGVIAYVSESQC
In the case of B1, the binding entry is on record as “binds”.

B2: SAD-1/BRSK1 (protein, UniProt Q19469 1-914)
chain: MFEALKEVLGEINSKLAAVNNELSSKIMSENIVSTRPVAQAQYCGPYKLEKTLGKGQTGLVKTGTHCITGRKVAIKIVNKEKLSESVLQKVEREIAIMKLIEHPHVLHLYDVYENKKYLYLLLEHVSGGELFDYLVRKGRLMSKEARKFFRQIISALDFCHAHNICHRDLKPENLLLDERNNIKVADFGMASLQVEGSMLETSCGSPHYACPEVIRGEKYDGRKADVWSCGVILYALLVGALPFDDDNLRNLLEKVKRGVFHIPHFVPADVQSLLRAMIEVDPGKRYSLADVFKHPWVSGTTKADPELELPMSQVVQTHVIPGEDSIDPDVLRHMNCLGCFKDKQKLINELLSPKHNTEKMVYFLLLDRKRRRPAQEDDTEIVLRGAAQNNDPPKKRTDSSRTSRYPMGSIADGSPINPRKTYGRNQKSGRHSSLGGSPTESPRSSTRDLFGSSSSGSYSARAGEDRDRGRSASRSTNSYHYYTQPVDPQTLAEAARHVRDAQERRESRDSGRGSSRKESKDRSDKSASSSSCKNDASSTSSVPHKYSPPSVMSESVVVSSSTMNSTNSSTNSLIAGNSQTSIGSTSGPWRSKLNNIKNSFLGTPRFHRRKMSNGTAESDSEDSQMIDTTDLVKKSWFGSLASSMSVERDDTHCVPVQGKTLNSIKAELIRAFLQIHELSHSVVGQNCFRVEYKRGPTVGGSVFSRGIKMNVDIIPSPQQVVIAGETPTYVVQFVLLAGPVRRFKRLVEHLSAILQNSTQQRADRQQQAALMVRPRRLSDSSVGSACSDSESNASSINMIARHSDKTETTSATSSDPYGPSPSMRSVGSGTANSYKSPTPHRRNTTAVTASSSSASNRYGPSSSSSGSYSNNADYSYHPEYSQRSNGSSAPKNQYSPGSQRSFAFSMFNKADKV
Consider B2, for which the binding result is recorded as “binds”.
